The nature of the assay: qHTS Assay for Lipid Storage Modulators in Drosophila S3 Cells.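 For cell number change: cells counted by Cell Tracker Red CMTPX staining in the red channel.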 Particulars: BODIPY lipid droplet fluorescence, 18-24 h; for cell number change: measured here: cell count max response, cells fed with added oleic acid. The method, boiled down: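 Drosophila S3 cells loaded with oleic acid (400 uM, as added) and compounds at several concentrations; lipid droplets imaged by 488-nm laser-scanning cytometry, 500–530 nm intensity and object ratio to cell channel. Percent activity normalized to 20 uM Triacsin C.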
A general note: Quantitative high-throughput screening tests each substance at several concentrations.

The mark [1] stands for this setting: measured here: lipid fluorescence (Fed channel) AC50, cells fed with added oleic acid.
Setting [2] is: measured here: cell number channel AC50, cells fed with added oleic acid.

Data on 61 molecules can be found in PubChem BioAssay AID2685 (National Center for Advancing Translational Sciences (NCATS), 2010).

SMILES strings stand for the structures. The list shows a part of the results. The main result of the screen is listed elsewhere. These columns were measured beside it and carry no call. Most of these compounds were active or inconclusive in the main read-out, so they are no random draw. Potencies come from curve fits of mixed quality, noted in brackets.

Usually AC50 stands for the concentration at which the activity in the assay is half-maximal.

Take `O=C(Cn1cncn1)N/N=C/c1c2ccccc2cc2ccccc12`: the cell number change is -9.64%. Moreover, the AC50 under setting [1] is 0.0058 µM [falling, full curve, poor fit]. For `O=C(O)C1CCCN1S(=O)(=O)c1ccc(F)cc1` (configuration not stated), the cell number change was -11.1%. Moreover, the AC50 under setting [1] was 0.461 µM [falling, full curve, poor fit]. Regarding `COc1ccc(N(CC(=O)Nc2ccc(S(=O)(=O)N3CCOCC3)cc2)S(=O)(=O)c2ccc(F)cc2)cc1`, the cell number change is -18.6%. Moreover, under setting [1], the concentration at half-maximal activity (AC50) was 8.2 µM [falling, partial curve].

Take `C/C(N)=C(/C#N)C(=O)CSc1cc(C)c2ccccc2n1`: the cell number change was -47.7%. Regarding `Cc1ccc(-n2c(CNc3ccc(F)cc3)nnc2SCC(=O)N2CCCC2)cc1`, the cell number change amounted to 153%. Consider `Cc1c(N=C2SCC(=O)N2/N=C/c2ccccc2Cl)c(=O)n(-c2ccccc2)n1C`, for which the AC50 was 0.731 µM [falling, full curve, poor fit] under setting [2] and 0.411 µM [falling, partial curve, poor fit] under setting [1].

On to `CCCCS(=O)(=O)N1CCN(S(=O)(=O)c2cccs2)CC1`, for which the cell number change came to 15%. For `CC1CCc2c(sc(NC(=O)c3ccco3)c2C(=O)O)C1` (configuration not stated), the cell number change was -7.14%. As for `COc1ccccc1N/C=C1/Sc2cc(Cl)ccc2NC1=O`, the cell number change is 8.19%. The concentration at half-maximal activity (AC50) under setting [1] was 0.0058 µM [rising, full curve, poor fit]. Consider `O=C(Cc1ccccc1[N+](=O)[O-])N1CCN(S(=O)(=O)c2ccccc2)CC1`, for which the cell number change came out at 16.4%. Further, the half-maximal activity concentration (AC50) under setting [2] is 6.51 µM [rising, single point]. In addition, under setting [1], the AC50 was 29.1 µM [rising, single point]. Regarding `CCN(CC(=O)Nc1ccc(NC(C)=O)cc1)C(=O)COc1ccccc1-c1ccccc1`, the cell number change was -18.3%. Besides, the concentration at half-maximal activity (AC50) under setting [2] was 0.00411 µM [falling, full curve, poor fit].

Regarding `CC1CCC(=NNC(=O)Cc2cccn2C)CC1` (configuration not stated), under setting [2], the concentration at half-maximal activity (AC50) is 0.58 µM [rising, full curve]. Consider `COc1cc(/C=C2/C(=O)NN(c3ccc(C)c(Cl)c3)C2=O)cc([N+](=O)[O-])c1O`, for which the cell number change was 13.6%.

As to `CN1C(=O)N(CC(=O)N2CCN(c3ccccc3F)CC2)C(=O)C12CCCCC2`, the cell number change was -12.6%. For the same molecule, under setting [1], the AC50 was 0.13 µM [falling, partial curve]. With `Nc1nonc1-n1nnc(C(=O)N/N=C/c2ccc(OCc3ccccc3F)cc2)c1CN1CCCCC1`, the cell number change is 10.1%. With `O=c1[nH]c2cc3c(cc2cc1CN(CCc1ccccc1)Cc1nnnn1CC1CCCO1)OCO3` (configuration not stated), the cell number change was determined as 35.1%. Also, under setting [2], the half-maximal activity concentration (AC50) was 0.461 µM [rising, full curve]. In addition, the AC50 under setting [1] was 1.3 µM [rising, full curve].

Turning to `CC(C(=O)Nc1ccccc1Sc1ccccc1)N(c1ccccc1)S(C)(=O)=O` (configuration not stated), the cell number change worked out at 11.2%.

`Cc1cc(C(=O)N2CCCC(CCC(=O)N3CCN(c4ccccn4)CC3)C2)c(C)o1` (configuration not stated): the cell number change was -27.4%. Also, the AC50 under setting [1] was 18.4 µM [falling, single point]. In the case of `CCOc1cc(/C=N/NC(=O)CCn2nc(C)cc2C)ccc1O`, the cell number change is 21.7%. Besides, the AC50 under setting [1] was 32.6 µM [rising, single point]. For the molecule `CCc1ccc(CNCCSc2nnnn2C)cc1`, the AC50 under setting [2] was 6.51 µM [falling, single point]. Turning to `N#C/C(=C\Nc1ccc2c(c1)OCCO2)c1nc(-c2ccccc2)cs1`, the cell number change is 20.1%. Also, the AC50 under setting [1] was 1.3 µM [rising, full curve]. Consider `COc1ccc(N2C(=O)CSC23C(=O)N2CCCc4cccc3c42)cc1` (configuration not stated), for which the cell number change is 2.84%. Moreover, the AC50 under setting [1] is 14.6 µM [rising, single point]. On to `CC1=C(C)CC(C(=O)NNC(=O)c2ccccc2O)C(C(=O)O)C1` (configuration not stated), for which the cell number change was -27.7%. Also, under setting [1], the concentration at half-maximal activity (AC50) is 23.1 µM [falling, partial curve]. In the case of `O=C(Nc1cccnc1Cl)c1ccc(Cl)cc1`, the cell number change turned out to be 0.275%. Regarding `COc1ccccc1OC(C)C(=O)O` (configuration not stated), the cell number change stood at 92.9%. The half-maximal activity concentration (AC50) under setting [1] was 20.6 µM [rising, partial curve]. Turning to `Nc1nnc(CC(=O)NCc2ccccc2)s1`, the cell number change is -16.9%. In addition, under setting [2], the AC50 is 0.82 µM [falling, full curve, poor fit].

Regarding `CC1CC(C)CN(CCCNC(=O)CN2C(=O)c3cccnc3Oc3ccccc32)C1` (configuration not stated), the cell number change was -10.5%. The concentration at half-maximal activity (AC50) under setting [2] was 0.326 µM [falling, full curve, poor fit]. Also, the concentration at half-maximal activity (AC50) under setting [1] is 6.51 µM [falling, single point].

Turning to `COc1ccc(Cn2c(=O)[nH]c3cc(C(=O)N4CCN(c5ccc(OC)cc5)CC4)ccc3c2=O)cc1`, the cell number change worked out at 19.2%. For the same molecule, under setting [1], the concentration at half-maximal activity (AC50) is 29.1 µM [rising, single point].

Regarding `NC(=O)c1ccccc1NC(=O)COC(=O)C1(c2ccccc2)CC1`, the cell number change was -12.3%.

Regarding `CCCCN(Cc1nc2ccccc2c(=O)[nH]1)C(=O)COc1ccc(F)cc1Cl`, the cell number change worked out at 0.735%. Besides, the half-maximal activity concentration (AC50) under setting [2] was 0.103 µM [falling, full curve, poor fit]. For the same molecule, under setting [1], the half-maximal activity concentration (AC50) was 7.31 µM [rising, partial curve]. Consider `Cn1c(Oc2ccc(F)cc2F)c(C=O)c2ccccc21`, for which the cell number change worked out at 0.525%. The concentration at half-maximal activity (AC50) under setting [1] is 0.00517 µM [falling, full curve, poor fit]. Turning to `COc1cccc(-n2c(C)nc3c(cnn3-c3ccc(C)cc3)c2=O)c1`, the half-maximal activity concentration (AC50) under setting [1] is 23.1 µM [rising, partial curve].

Consider `Cc1ccc(S(=O)(=O)N(C)c2ccc(C(=O)NCC(c3ccco3)N(C)C)cc2)cc1` (configuration not stated), for which the half-maximal activity concentration (AC50) under setting [1] is 6.51 µM [falling, partial curve, poor fit]. In the case of `O=Cc1cccn1-c1c(C(=O)O)cnn1-c1ccccc1`, the cell number change is -56.6%. Under setting [2], the concentration at half-maximal activity (AC50) was 0.651 µM [falling, full curve]. The AC50 under setting [1] was 0.731 µM [falling, full curve]. As to `CCOC(=O)c1cc(C(=O)OCC)c2ccccn2c1=O`, the cell number change is 12.2%. For the same molecule, the AC50 under setting [2] is 0.651 µM [rising, single point]. Take `O=C(N/N=C/C(Br)=C/c1ccccc1)c1cc(-c2ccco2)[nH]n1`: the cell number change was -25.4%. Moreover, under setting [2], the concentration at half-maximal activity (AC50) is 0.82 µM [falling, full curve, poor fit]. In addition, the concentration at half-maximal activity (AC50) under setting [1] was 0.0517 µM [falling, full curve, poor fit].

For `Cn1c(SCC(=O)Nc2ccc3c(c2)CCC3)nnc1C1CC1`, the cell number change is -19.5%.

Take `O=C(c1cccc(C(=O)N2CCN(c3ccc(F)cc3)CC2)c1)N1CCN(c2ccc(F)cc2)CC1`: the cell number change was -5.03%. Consider `NS(=O)(=O)c1ccc(NC(=S)N2CCCC2)cc1`, for which the cell number change was 13.5%. The concentration at half-maximal activity (AC50) under setting [1] is 0.651 µM [rising, partial curve, poor fit].

In the case of `Cc1sc2nc(CN3CCCC3)nc(N3CCN(C(=O)c4ccco4)CC3)c2c1C`, the half-maximal activity concentration (AC50) under setting [1] is 1.84 µM [rising, single point]. With `O=C(O)CCCC(=O)N1CCc2cc(S(=O)(=O)NCc3ccccc3)ccc21`, the AC50 under setting [1] is 18.4 µM [rising, single point].

Regarding `O=C(/C=C/c1cccc(Cl)c1)c1nc2ccccc2[nH]1`, the cell number change was -60.5%. Also, the half-maximal activity concentration (AC50) under setting [2] was 7.31 µM [falling, partial curve]. Besides, the concentration at half-maximal activity (AC50) under setting [1] is 5.8 µM [falling, full curve].

Take `CCCCCCOc1ccc(/C(C)=N/NC2=NCCN2)cc1`: the cell number change is -35.6%. In addition, the AC50 under setting [2] was 29.1 µM [falling, single point]. For the same molecule, the half-maximal activity concentration (AC50) under setting [1] is 16.4 µM [falling, single point]. Take `COc1ccccc1C(=O)NCC(=O)Nc1cccnc1`: the cell number change was -33.7%. For the same molecule, the AC50 under setting [1] is 6.51 µM [rising, partial curve, poor fit]. `Cc1ccc(NC(=O)CCc2nc3ccccc3s2)c(O)c1`: the concentration at half-maximal activity (AC50) under setting [2] is 0.00461 µM [rising, full curve, poor fit].

Turning to `CC(C)(C)[C@H]1C=C(C(=O)N2CCOCC2)O[C@@H](OCCCCO)C1`, the cell number change turned out to be 18.1%. In addition, the concentration at half-maximal activity (AC50) under setting [2] is 0.058 µM [rising, full curve, poor fit]. With `CC1CCN(CC(O)COc2ccc(-c3ccccc3)cc2)CC1` (configuration not stated), the cell number change amounted to 5.87%. Further, the AC50 under setting [1] was 29.1 µM [falling, single point]. Turning to `CCN(CC)C(=O)Cn1cc(C(=O)C(=O)NCCc2c[nH]c3ccccc23)c2ccccc21`, the cell number change was determined as 4.59%. In addition, the AC50 under setting [1] is 0.058 µM [rising, full curve, poor fit]. Consider `Cc1nc(/N=C(\N)NC(=O)N2c3ccccc3Sc3ccccc32)nc2ccccc12`, for which, under setting [1], the half-maximal activity concentration (AC50) was 0.461 µM [rising, single point]. Consider `Brc1ccc2[nH]c3c(N4CCc5ccccc5C4)ncnc3c2c1`, for which the cell number change is -88.5%. The AC50 under setting [2] was 20.6 µM [falling, partial curve]. Moreover, under setting [1], the concentration at half-maximal activity (AC50) is 29.1 µM [falling, single point].

Take `O=C(CN(C(=O)CNC(=O)c1cccs1)c1ccccc1)NC1CCCCC1`: the cell number change turned out to be 5.65%.

For the molecule `CCN(CC(=O)Nc1c(F)cccc1F)C(=O)CNC(=O)c1ccc2c(c1)OCO2`, the concentration at half-maximal activity (AC50) under setting [1] was 3.26 µM [falling, single point]. Turning to `CCCc1cc(C(=O)NNC(=S)Nc2cccc(C)c2)cs1`, the cell number change is -18.9%. Further, the AC50 under setting [1] was 1.3 µM [rising, full curve]. Consider `Cc1cc(C)c(NC(=O)COC(=O)c2cc([N+](=O)[O-])ccc2N2CCOCC2)c(C)c1`, for which the cell number change was found to be 2.44%. In addition, the AC50 under setting [1] is 10.3 µM [rising, partial curve]. On to `OCCN1CCN(CC#CCn2c3ccccc3c3ccccc32)CC1`, for which the cell number change was 0.471%. Moreover, under setting [1], the half-maximal activity concentration (AC50) was 0.206 µM [falling, full curve]. As for `COc1cccc(N2CCN(C(=O)CN3C(=O)NC(C)(c4ccc5ccccc5c4)C3=O)CC2)c1` (configuration not stated), the cell number change was -3.63%. Besides, the AC50 under setting [1] is 7.31 µM [falling, single point].

Consider `Cc1cc(Cl)ccc1OC(C)C(=O)Nc1ccc([N+](=O)[O-])cn1` (configuration not stated), for which the cell number change was found to be 0.322%. Further, the AC50 under setting [1] is 0.103 µM [falling, full curve, poor fit].

Turning to `O=c1cc(-c2ccccc2)nc2nc(COc3ccccc3)[nH]n12`, the cell number change amounted to 44.1%. Moreover, under setting [2], the AC50 was 14.6 µM [rising, single point]. In the case of `Cc1ccc(NC(=S)NCCO)c(C)c1`, the cell number change is -68.3%. The AC50 under setting [2] is 16.4 µM [falling, single point]. Moreover, the half-maximal activity concentration (AC50) under setting [1] is 18.4 µM [falling, partial curve]. With `O=C(NCC1CCCO1)c1ccc(-c2ccccc2Cl)o1` (configuration not stated), the cell number change came to 82.5%. Besides, the AC50 under setting [2] is 16.4 µM [rising, partial curve, poor fit]. For `Cc1ccc(S(=O)(=O)NC(C(=O)Oc2ccc3ccc(=O)oc3c2)c2ccccc2)cc1` (configuration not stated), the cell number change is -3.1%. Moreover, the concentration at half-maximal activity (AC50) under setting [2] was 4.11 µM [rising, single point]. Moreover, the concentration at half-maximal activity (AC50) under setting [1] is 7.31 µM [rising, partial curve].
